A short description of the data set: Pharmacokinetic properties in ICR mouse, oral and subcutaneous, Bio-Assay (Agar well method). Particulars: in vivo, 40 mg/kg. The protocol: The pharmacokinetic properties are tested by orally administrating and subcutaneously injecting a test compound and a substance for control to a ICR Mouse with 22 g±10% weight, drawing blood after 10, 20, 30, 45, 60, 90, 120, 150, 180 and […] and analyzed by Bio-Assay (Agar well method).

On to `O=C(O)c1cn(C2CC2)c2cc(N3CCNCC3)c(F)cc2c1=O` [Ciprofloxacin, reference compound], for which, where the note is “po”, the AUC turned out to be 2270 ng·h/mL, the highest concentration (Cmax) was found to be 1710 ng/mL and the Tmax was determined as 1.47 h. Also, where the note is “sc”, the area under the curve (AUC) was 15600 ng·h/mL, the Cmax came to 7770 ng/mL and the time to peak (Tmax) is 1.56 h.

For orientation: AUC means concentration integrated over time. Read a low AUC as less exposure. One may read the Cmax as the highest concentration seen after dosing. The term Tmax denotes the time at which the peak concentration occurs.
